Article PMC12606344
Results are given in words; binding and its absence hold for the method and conditions named. In cells and extracts the contact can be indirect. These calls come from enrichment with a bait or labelling near it, and not all partners need be listed.

By UniProt entry, the sequences of proteins in these tests, tags left out.
UniProt Q92466: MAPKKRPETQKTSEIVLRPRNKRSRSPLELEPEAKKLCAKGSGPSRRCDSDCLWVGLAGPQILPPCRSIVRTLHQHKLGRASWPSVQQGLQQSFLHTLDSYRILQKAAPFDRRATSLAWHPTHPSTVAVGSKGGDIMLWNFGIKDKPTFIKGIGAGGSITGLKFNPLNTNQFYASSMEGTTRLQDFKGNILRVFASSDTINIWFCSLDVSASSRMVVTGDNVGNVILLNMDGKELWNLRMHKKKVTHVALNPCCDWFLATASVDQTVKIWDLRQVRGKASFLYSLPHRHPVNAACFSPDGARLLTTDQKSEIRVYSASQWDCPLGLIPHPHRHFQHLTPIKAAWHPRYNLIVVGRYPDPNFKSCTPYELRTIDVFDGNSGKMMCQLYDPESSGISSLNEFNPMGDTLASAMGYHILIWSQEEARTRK
UniProt Q13619: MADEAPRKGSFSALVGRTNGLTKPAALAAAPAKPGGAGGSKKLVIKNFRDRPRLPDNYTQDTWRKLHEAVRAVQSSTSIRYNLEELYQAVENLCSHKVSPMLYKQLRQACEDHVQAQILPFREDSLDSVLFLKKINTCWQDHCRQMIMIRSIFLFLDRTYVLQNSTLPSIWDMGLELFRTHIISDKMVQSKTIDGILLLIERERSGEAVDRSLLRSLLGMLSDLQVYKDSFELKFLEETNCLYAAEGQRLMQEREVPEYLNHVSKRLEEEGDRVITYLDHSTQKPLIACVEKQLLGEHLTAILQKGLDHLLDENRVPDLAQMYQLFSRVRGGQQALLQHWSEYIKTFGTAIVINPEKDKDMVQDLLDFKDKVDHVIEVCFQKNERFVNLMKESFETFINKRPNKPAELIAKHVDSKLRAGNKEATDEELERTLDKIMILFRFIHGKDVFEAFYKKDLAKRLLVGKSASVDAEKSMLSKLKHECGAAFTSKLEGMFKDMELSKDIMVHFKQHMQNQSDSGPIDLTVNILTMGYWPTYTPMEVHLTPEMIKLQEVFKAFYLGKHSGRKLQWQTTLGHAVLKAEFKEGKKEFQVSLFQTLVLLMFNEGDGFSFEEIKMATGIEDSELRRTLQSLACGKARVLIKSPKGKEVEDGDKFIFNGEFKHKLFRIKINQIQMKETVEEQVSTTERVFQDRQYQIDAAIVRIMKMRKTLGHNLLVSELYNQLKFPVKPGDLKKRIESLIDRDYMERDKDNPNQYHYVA
UniProt Q13620: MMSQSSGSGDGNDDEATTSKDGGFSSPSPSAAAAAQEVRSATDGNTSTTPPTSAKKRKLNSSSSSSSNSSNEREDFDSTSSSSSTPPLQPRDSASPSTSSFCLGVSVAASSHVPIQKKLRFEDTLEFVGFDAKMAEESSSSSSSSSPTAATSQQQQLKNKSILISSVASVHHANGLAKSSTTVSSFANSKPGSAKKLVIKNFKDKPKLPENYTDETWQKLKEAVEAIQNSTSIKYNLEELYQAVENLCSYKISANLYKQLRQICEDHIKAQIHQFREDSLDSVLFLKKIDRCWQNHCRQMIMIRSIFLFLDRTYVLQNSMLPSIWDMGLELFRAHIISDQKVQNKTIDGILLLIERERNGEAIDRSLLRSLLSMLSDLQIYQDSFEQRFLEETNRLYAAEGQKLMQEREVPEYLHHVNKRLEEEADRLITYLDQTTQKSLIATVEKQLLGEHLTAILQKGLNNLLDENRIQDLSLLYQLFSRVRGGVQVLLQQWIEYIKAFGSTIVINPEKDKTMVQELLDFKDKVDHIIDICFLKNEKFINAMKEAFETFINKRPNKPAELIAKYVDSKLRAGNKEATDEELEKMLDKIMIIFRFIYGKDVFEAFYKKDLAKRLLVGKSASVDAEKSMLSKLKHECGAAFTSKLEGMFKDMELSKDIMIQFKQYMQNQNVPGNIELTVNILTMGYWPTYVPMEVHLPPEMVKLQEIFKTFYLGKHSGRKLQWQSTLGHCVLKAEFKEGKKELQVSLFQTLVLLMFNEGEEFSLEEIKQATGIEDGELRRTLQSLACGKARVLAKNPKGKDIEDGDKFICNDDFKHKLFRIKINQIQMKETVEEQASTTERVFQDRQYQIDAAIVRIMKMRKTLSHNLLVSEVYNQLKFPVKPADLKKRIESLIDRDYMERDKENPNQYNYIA
UniProt Q16531: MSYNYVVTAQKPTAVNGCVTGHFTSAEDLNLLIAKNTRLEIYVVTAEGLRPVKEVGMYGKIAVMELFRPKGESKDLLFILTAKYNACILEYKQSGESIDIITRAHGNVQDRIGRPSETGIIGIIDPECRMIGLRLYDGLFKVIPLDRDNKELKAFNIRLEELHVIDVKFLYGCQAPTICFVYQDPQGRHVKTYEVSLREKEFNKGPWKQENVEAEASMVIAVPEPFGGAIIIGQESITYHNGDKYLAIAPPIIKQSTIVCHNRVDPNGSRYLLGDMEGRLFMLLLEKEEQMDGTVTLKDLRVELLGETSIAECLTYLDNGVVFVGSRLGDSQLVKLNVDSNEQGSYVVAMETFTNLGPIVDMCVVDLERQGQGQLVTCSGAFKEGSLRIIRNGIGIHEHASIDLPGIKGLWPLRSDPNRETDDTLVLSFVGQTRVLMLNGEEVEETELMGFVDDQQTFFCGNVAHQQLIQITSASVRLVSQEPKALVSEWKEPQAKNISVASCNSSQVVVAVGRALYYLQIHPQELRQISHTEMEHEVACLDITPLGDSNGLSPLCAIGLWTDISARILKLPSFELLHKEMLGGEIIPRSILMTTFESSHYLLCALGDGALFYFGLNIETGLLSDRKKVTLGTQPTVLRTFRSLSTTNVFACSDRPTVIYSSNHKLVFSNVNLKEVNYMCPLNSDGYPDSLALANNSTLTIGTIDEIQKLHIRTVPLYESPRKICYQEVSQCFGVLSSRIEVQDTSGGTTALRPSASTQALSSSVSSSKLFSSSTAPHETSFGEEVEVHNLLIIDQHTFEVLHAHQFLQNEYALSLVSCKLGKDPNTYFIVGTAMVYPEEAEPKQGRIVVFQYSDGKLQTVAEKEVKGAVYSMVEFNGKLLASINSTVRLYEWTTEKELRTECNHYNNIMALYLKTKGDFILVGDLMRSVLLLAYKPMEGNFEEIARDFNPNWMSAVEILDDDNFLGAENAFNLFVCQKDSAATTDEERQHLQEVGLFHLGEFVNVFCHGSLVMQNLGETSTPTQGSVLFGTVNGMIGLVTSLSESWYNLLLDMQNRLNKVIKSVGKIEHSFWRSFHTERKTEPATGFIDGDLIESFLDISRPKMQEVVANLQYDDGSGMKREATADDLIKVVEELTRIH

molecular target: FLAG-tagged DDB2 (HEK293F expressing FLAG-DDB2) (human) (UniProt Q92466); assay: affinity purification with mass spectrometry; anti-FLAG eluate of chromatin from HEK293F cells expressing FLAG-DDB2; same chromatin isolation without crosslinking (as the results say); CBB-stained gel, in-gel and shotgun trypsin digestion, nano LC-MS/MS

binding, binds:
CUL4A (endogenous, HEK293F) (from UniProt Q13619 1-759) (other; other documents disagree on this pair)
CUL4B (endogenous, HEK293F) (from UniProt Q13620 1-913)
DDB1 (endogenous, HEK293F) (from UniProt Q16531 1-1140)
